What all share (test): High-throughput cell-surface marker screening (LEGENDScreen), %PE+
Holding throughout (assay type): cell-based, human
Holding throughout (conditions): percentage of cells bound to the PE-conjugated antibody (LEGENDScreen)

For one series, the system named is D3.5 SOX17-GFP+ PGCs.
Another series concerns D3.5 SOX17-GFP- non-PGCs.
The test system of series [1] is undifferentiated hPSC (D0).

The values that follow come from patent US20230242871A1, “GENERATION OF PRIMORDIAL GERM CELLS AND METHODS OF USING THE SAME” (The Board of Trustees of the Leland Stanfor Junior …, priority 2020, published 2023).

B1: CD307e (protein, UniProt Q96RD9 16-977, looked up)
Fc receptor-like protein 5: QFARTPRPIIFLQPPWTTVFQGERVTLTCKGFRFYSPQKTKWYHRYLGKEILRETPDNILEVQESGEYRCQAQGSPLSSPVHLDFSSASLILQAPLSVFEGDSVVLRCRAKAEVTLNNTIYKNDNVLAFLNKRTDFHIPHACLKDNGAYRCTGYKESCCPVSSNTVKIQVQEPFTRPVLRASSFQPISGNPVTLTCETQLSLERSDVPLRFRFFRDDQTLGLGWSLSPNFQITAMWSKDSGFYWCKAATMPYSVISDSPRSWIQVQIPASHPVLTLSPEKALNFEGTKVTLHCETQEDSLRTLYRFYHEGVPLRHKSVRCERGASISFSLTTENSGNYYCTADNGLGAKPSKAVSLSVTVPVSHPVLNLSSPEDLIFEGAKVTLHCEAQRGSLPILYQFHHEGAALERRSANSAGGVAISFSLTAEHSGNYYCTADNGFGPQRSKAVSLSVTVPVSHPVLTLSSAEALTFEGATVTLHCEVQRGSPQILYQFYHEDMPLWSSSTPSVGRVSFSFSLTEGHSGNYYCTADNGFGPQRSEVVSLFVTVPVSRPILTLRVPRAQAVVGDLLELHCEAPRGSPPILYWFYHEDVTLGSSSAPSGGEASFNLSLTAEHSGNYSCEANNGLVAQHSDTISLSVIVPVSRPILTFRAPRAQAVVGDLLELHCEALRGSSPILYWFYHEDVTLGKISAPSGGGASFNLSLTTEHSGIYSCEADNGLEAQRSEMVTLKVAVPVSRPVLTLRAPGTHAAVGDLLELHCEALRGSPLILYRFFHEDVTLGNRSSPSGGASLNLSLTAEHSGNYSCEADNGLGAQRSETVTLYITGLTANRSGPFATGVAGGLLSIAGLAAGALLLYCWLSRKAGRKPASDPARSPSDSDSQEPTYHNVPAWEELQPVYTNANPRGENVVYSEVRIIQEKKKHAVASDPRHLRNKGSPIIYSEVKVASTPVSGSLFLASSAPHR
Regarding B1, the “% PE+ in PGCs” value in the series with D3.5 SOX17-GFP+ PGCs came to 0%. Moreover, in the series on D3.5 SOX17-GFP- non-PGCs, the “% PE+ in non-PGCs” value turned out to be 0%. The “% PE+ in H1 UD” value in series [1] is given as 0.18%.

B2: CD369 (protein, UniProt Q9BXN2 1-247, looked up)
C-type lectin domain family 7 …: MEYHPDLENLDEDGYTQLHFDSQSNTRIAVVSEKGSCAASPPWRLIAVILGILCLVILVIAVVLGTMAIWRSNSGSNTLENGYFLSRNKENHSQPTQSSLEDSVTPTKAVKTTGVLSSPCPPNWIIYEKSCYLFSMSLNSWDGSKRQCWQLGSNLLKIDSSNELGFIVKQVSSQPDNSFWIGLSRPQTEVPWLWEDGSTFSSNLFQIRTTATQENPSPNCVWIHVSVIYDQLCSVPSYSICEKKFSM
Regarding B2, the “% PE+ in PGCs” value with D3.5 SOX17-GFP+ PGCs amounted to 0%. Moreover, the “% PE+ in non-PGCs” value in the series on D3.5 SOX17-GFP- non-PGCs was found to be 0.0003541%. Besides, the “% PE+ in H1 UD” value in series [1] came to 0.21%.

B3: CD371 (protein, UniProt Q5QGZ9 1-265, looked up)
C-type lectin domain family …: MSEEVTYADLQFQNSSEMEKIPEIGKFGEKAPPAPSHVWRPAALFLTLLCLLLLIGLGVLASMFHVTLKIEMKKMNKLQNISEELQRNISLQLMSNMNISNKIRNLSTTLQTIATKLCRELYSKEQEHKCKPCPRRWIWHKDSCYFLSDDVQTWQESKMACAAQNASLLKINNKNALEFIKSQSRSYDYWLGLSPEEDSTRGMRVDNIINSSAWVIRNAPDLNNMYCGYINRLYVQYYHCTYKKRMICEKMANPVQLGSTYFREA
B3: in the series on D3.5 SOX17-GFP+ PGCs, the “% PE+ in PGCs” value was 0%. In addition, the “% PE+ in non-PGCs” value in the series with D3.5 SOX17-GFP- non-PGCs was determined as 0.002529%. Also, in series [1], the “% PE+ in H1 UD” value came to 0.12%.

B4: CD197 (protein, UniProt P32248 25-378, looked up)
C-C chemokine receptor type 7: QDEVTDDYIGDNTTVDYTLFESLCSKKDVRNFKAWFLPIMYSIICFVGLLGNGLVVLTYIYFKRLKTMTDTYLLNLAVADILFLLTLPFWAYSAAKSWVFGVHFCKLIFAIYKMSFFSGMLLLLCISIDRYVAIVQAVSAHRHRARVLLISKLSCVGIWILATVLSIPELLYSDLQRSSSEQAMRCSLITEHVEAFITIQVAQMVIGFLVPLLAMSFCYLVIIRTLLQARNFERNKAIKVIIAVVVVFIVFQLPYNGVVLAQTVANFNITSSTCELSKQLNIAYDVTYSLACVRCCVNPFLYAFIGVKFRNDLFKLFKDLGCLSQEQLRQWSSCRHIRRSSMSVEAETTTTFSP
As for B4, the “% PE+ in PGCs” value with D3.5 SOX17-GFP+ PGCs stood at 0.004315%. The “% PE+ in non-PGCs” value in the series with D3.5 SOX17-GFP- non-PGCs is 0.01304%. Besides, the “% PE+ in H1 UD” value in series [1] is 2.73%.

B5: CD119 (protein, UniProt P15260 18-489, looked up)
Interferon gamma receptor 1: EMGTADLGPSSVPTPTNVTIESYNMNPIVYWEYQIMPQVPVFTVEVKNYGVKNSEWIDACINISHHYCNISDHVGDPSNSLWVRVKARVGQKESAYAKSEEFAVCRDGKIGPPKLDIRKEEKQIMIDIFHPSVFVNGDEQEVDYDPETTCYIRVYNVYVRMNGSEIQYKILTQKEDDCDEIQCQLAIPVSSLNSQYCVSAEGVLHVWGVTTEKSKEVCITIFNSSIKGSLWIPVVAALLLFLVLSLVFICFYIKKINPLKEKSIILPKSLISVVRSATLETKPESKYVSLITSYQPFSLEKEVVCEEPLSPATVPGMHTEDNPGKVEHTEELSSITEVVTTEENIPDVVPGSHLTPIERESSSPLSSNQSEPGSIALNSYHSRNCSESDHSRNGFDTDSSCLESHSSLSDSEFPPNNKGEIKTEGQELITVIKAPTSFGYDKPHVLVDLLVDDSGKESLIGYRPTEDSKEFS
For B5, the “% PE+ in PGCs” value in the series with D3.5 SOX17-GFP+ PGCs amounted to 0.3282%. In addition, the “% PE+ in non-PGCs” value with D3.5 SOX17-GFP- non-PGCs amounted to 0.4326%. For the same molecule, in series [1], the “% PE+ in H1 UD” value was 99.8%.

B6: CD192 (protein, UniProt P41597 1-374, looked up)
C-C chemokine receptor type 2: MLSTSRSRFIRNTNESGEEVTTFFDYDYGAPCHKFDVKQIGAQLLPPLYSLVFIFGFVGNMLVVLILINCKKLKCLTDIYLLNLAISDLLFLITLPLWAHSAANEWVFGNAMCKLFTGLYHIGYFGGIFFIILLTIDRYLAIVHAVFALKARTVTFGVVTSVITWLVAVFASVPGIIFTKCQKEDSVYVCGPYFPRGWNNFHTIMRNILGLVLPLLIMVICYSGILKTLLRCRNEKKRHRAVRVIFTIMIVYFLFWTPYNIVILLNTFQEFFGLSNCESTSQLDQATQVTETLGMTHCCINPIIYAFVGEKFRSLFHIALGCRIAPLQKPVCGGPGVRPGKNVKVTTQGLLDGRGKGKSIGRAPEASLQDKEGA
B6: the “% PE+ in PGCs” value in the series with D3.5 SOX17-GFP+ PGCs is given as 0%. In addition, the “% PE+ in non-PGCs” value with D3.5 SOX17-GFP- non-PGCs is reported as 0.0003137%. Moreover, in series [1], the “% PE+ in H1 UD” value came out at 0.16%.

B7: CD269 (protein, UniProt Q02223 1-184, looked up)
Tumor necrosis factor …: MLQMAGQCSQNEYFDSLLHACIPCQLRCSSNTPPLTCQRYCNASVTNSVKGTNAILWTCLGLSLIISLAVFVLMFLLRKINSEPLKDEFKNTGSGLLGMANIDLEKSRTGDEIILPRGLEYTVEECTCEDCIKSKPKVDSDHCFPLPAMEEGATILVTTKTNDYCKSLPAALSATEIEKSISAR
For the molecule B7, in the series on D3.5 SOX17-GFP+ PGCs, the “% PE+ in PGCs” value was 0%. Further, the “% PE+ in non-PGCs” value with D3.5 SOX17-GFP- non-PGCs is reported as 3.387E-05%. Besides, the “% PE+ in H1 UD” value in series [1] turned out to be 0.12%.

B8: CD355 (protein, UniProt O95727 18-393, looked up)
Cytotoxic and regulatory …: SLTNHTETITVEEGQTLTLKCVTSLRKNSSLQWLTPSGFTIFLNEYPALKNSKYQLLHHSANQLSITVPNVTLQDEGVYKCLHYSDSVSTKEVKVIVLATPFKPILEASVIRKQNGEEHVVLMCSTMRSKPPPQITWLLGNSMEVSGGTLHEFETDGKKCNTTSTLIIHTYGKNSTVDCIIRHRGLQGRKLVAPFRFEDLVTDEETASDALERNSLSSQDPQQPTSTVSVTEDSSTSEIDKEEKEQTTQDPDLTTEANPQYLGLARKKSGILLLTLVSFLIFILFIIVQLFIMKLRKAHVIWKKENEVSEHTLESYRSRSNNEETSSEEKNGQSSHPMRCMNYITKLYSEAKTKRKENVQHSKLEEKHIQVPESIV
B8: the “% PE+ in PGCs” value with D3.5 SOX17-GFP+ PGCs was found to be 0%. Also, the “% PE+ in non-PGCs” value in the series with D3.5 SOX17-GFP- non-PGCs is reported as 0.0001216%. In addition, in series [1], the “% PE+ in H1 UD” value was found to be 0.19%.

B9: CD11a (protein, UniProt P20701 26-1170, looked up)
Integrin alpha-L: YNLDVRGARSFSPPRAGRHFGYRVLQVGNGVIVGAPGEGNSTGSLYQCQSGTGHCLPVTLRGSNYTSKYLGMTLATDPTDGSILACDPGLSRTCDQNTYLSGLCYLFRQNLQGPMLQGRPGFQECIKGNVDLVFLFDGSMSLQPDEFQKILDFMKDVMKKLSNTSYQFAAVQFSTSYKTEFDFSDYVKRKDPDALLKHVKHMLLLTNTFGAINYVATEVFREELGARPDATKVLIIITDGEATDSGNIDAAKDIIRYIIGIGKHFQTKESQETLHKFASKPASEFVKILDTFEKLKDLFTELQKKIYVIEGTSKQDLTSFNMELSSSGISADLSRGHAVVGAVGAKDWAGGFLDLKADLQDDTFIGNEPLTPEVRAGYLGYTVTWLPSRQKTSLLASGAPRYQHMGRVLLFQEPQGGGHWSQVQTIHGTQIGSYFGGELCGVDVDQDGETELLLIGAPLFYGEQRGGRVFIYQRRQLGFEEVSELQGDPGYPLGRFGEAITALTDINGDGLVDVAVGAPLEEQGAVYIFNGRHGGLSPQPSQRIEGTQVLSGIQWFGRSIHGVKDLEGDGLADVAVGAESQMIVLSSRPVVDMVTLMSFSPAEIPVHEVECSYSTSNKMKEGVNITICFQIKSLIPQFQGRLVANLTYTLQLDGHRTRRRGLFPGGRHELRRNIAVTTSMSCTDFSFHFPVCVQDLISPINVSLNFSLWEEEGTPRDQRAQGKDIPPILRPSLHSETWEIPFEKNCGEDKKCEANLRVSFSPARSRALRLTAFASLSVELSLSNLEEDAYWVQLDLHFPPGLSFRKVEMLKPHSQIPVSCEELPEESRLLSRALSCNVSSPIFKAGHSVALQMMFNTLVNSSWGDSVELHANVTCNNEDSDLLEDNSATTIIPILYPINILIQDQEDSTLYVSFTPKGPKIHQVKHMYQVRIQPSIHDHNIPTLEAVVGVPQPPSEGPITHQWSVQMEPPVPCHYEDLERLPDAAEPCLPGALFRCPVVFRQEILVQVIGTLELVGEIEASSMFSLCSSLSISFNSSKHFHLYGSNASLAQVVMKVDVVYEKQMLYLYVLSGIGGLLLLLLIFIVLYKVGFFKRNLKEKMEAGRGVPNGIPAEDSEQLASGQEAGDPGCLKPLHEKDSESGGGKD
Regarding B9, in the series with D3.5 SOX17-GFP+ PGCs, the “% PE+ in PGCs” value is 0%. Also, the “% PE+ in non-PGCs” value with D3.5 SOX17-GFP- non-PGCs came out at 5.663E-05%. In addition, the “% PE+ in H1 UD” value in series [1] is 0.3%.

B10: CD7 (protein, UniProt P09564 26-240, looked up)
T-cell antigen CD7: AQEVQQSPHCTTVPVGASVNITCSTSGGLRGIYLRQLGPQPQDIIYYEDGVVPTTDRRFRGRIDFSGSQDNLTITMHRLQLSDTGTYTCQAITEVNVYGSGTLVLVTEEQSQGWHRCSDAPPRASALPAPPTGSALPDPQTASALPDPPAASALPAALAVISFLLGLGLGVACVLARTQIKKLCSWRDKNSAACVVYEDMSHSRCNTLSSPNQYQ
As for B10, in the series with D3.5 SOX17-GFP+ PGCs, the “% PE+ in PGCs” value turned out to be 0.2105%. Moreover, the “% PE+ in non-PGCs” value in the series on D3.5 SOX17-GFP- non-PGCs came to 0.2417%. Also, the “% PE+ in H1 UD” value in series [1] stood at 18.6%.
